In PubChem BioAssay AID504842 (National Center for Advancing Translational Sciences (NCATS), 2011):
Out of some 330,000 compounds screened, about 100 (0.03%) were called active. Inconclusive results, whose numbers are uncertain, are shown with a selection of clear calls. Calls come from the whole dose curve; as a rule, active = well fitted inhibition curve with a large enough effect; inconclusive = small, poorly fitted or top-dose-only effect; inactive = flat fitted curve, though single readings scatter. Where the call is inconclusive, the potency comes from a doubtful curve fit.

Tested on: Chaperonin Mm-Cpn (Methanococcus maripaludis)
Assay: Inhibitors of TCP-1 ring complex (TRiC) of Methanococcus maripaludis (MmCpn): qHTS; note: nearly all actives have a fitted effect of over 80% in size;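 for potency: enzyme at 25 nM with ATP substrate at 10 µM during the reaction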
Conditions: purified Mm-Cpn ATPase, ADP Transcreener TR-FRET; activity, negative = inhibition: at the top concentration
Summary of the method: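 ATP (10 uM final) was added to archaeal chaperonin (25 nM final) after 10 min exposure to test compound at 37°C; after 30 min further incubation, ADP was detected by competitive TR-FRET.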
% is set by controls: 0 for no effect and ±100 for the full control effect; potency is the fitted concentration of half-maximal effect.

SMILES	activity, negative = inhibition	Potency
COc1ccc(CNC(=O)c2ccccc2C(=O)O)cc1	inactive: 1.72%	–
O=C1N(c2ccccc2)C(=Nc2ccccc2)SC12CC2	–	inconclusive: 100 µM [inhibitor, single point]
CCCn1c(SCC(=O)Nc2nc(-c3ccc(OC)cc3)cs2)nc2c1c(=O)n(C)c(=O)n2C	–	inconclusive: 17.8 µM [inhibitor, single point]
CCCCn1c(=O)nc2n(-c3ccc(Cl)cc3)c3ccccc3cc-2c1=O	–	inconclusive: 20 µM [inhibitor, single point]
CC(NS(=O)(=O)c1ccc2c(c1)c(=O)n(C)c(=O)n2C)C(=O)NC1CCCCC1 (stereo not drawn)	–	inconclusive: 10 µM [inhibitor, single point]
COc1ccc2sc(-c3ccc(N(C)C)cc3)c(C#Cc3cncn3C)c2c1	inactive: -0.486%	–
Cc1nc(C)c(-c2ccc(SCC(=O)Nc3cccc(Cl)c3C)nn2)s1	–	inconclusive: 79.4 µM [inhibitor, partial curve]
O=c1oc2ccccc2c(Nc2cccc3ccccc23)c1[N+](=O)[O-]	inactive: -2.78%	–
CCc1nnc(NC(=O)CSc2ccc(-c3cccs3)nn2)s1	inactive: -6.42%	–
Cc1cc(C)c(S(=O)(=O)Cc2ccccc2)c(OC(C)C)n1	–	inconclusive: 22.4 µM [inhibitor, single point]
CC(Cc1ccccc1)NC(=O)c1cc([N+](=O)[O-])ccc1Cl (stereo not drawn)	inactive: 0.591%	–
Cc1ccc(S(=O)(=O)NCCCCC(NC(=O)OC(C)(C)C)C(=O)O)cc1 (stereo not drawn) (tested in a mixture with another compound)	–	inconclusive: 17.8 µM [inhibitor, single point]
CCOc1ccccc1C(=O)N1CCC(n2nnc3cc(C)ccc32)CC1	inactive: -0.146%	–
Cc1cc(C)n2nc(SCc3cc(=O)oc4cc(O)ccc34)nc2n1	–	inconclusive: 11.2 µM [inhibitor, single point]
COc1ccc(CC(CC(=O)O)C(=O)Nc2ccc(Cl)c(Cl)c2)cc1 (stereo not drawn)	inactive: 0.989%	–
Cc1cc(NS(=O)(=O)c2ccc3c(c2)OCCO3)no1	–	inconclusive: 89.1 µM [inhibitor, single point]
Cc1ccc(S(=O)(=O)N(C)CC(=O)Nc2nc3ccccc3s2)cc1	inactive: 0.592%	–
C#CCOCCOCCOCCNc1nc(N2CCN(C(=O)CCCCCCCCCCNC(=O)[C@H](CCCCN)n3cc(C)nn3)CC2)nc(N2CCN(C(=O)CCCCCCCCCCNC(=O)[C@@H]([C@H](C)O)n3cc(C)nn3)CC2)n1	inactive: 1.67%	–
CCCCn1c(N)c(N(CC(C)C)C(=O)C2CCCO2)c(=O)[nH]c1=O (stereo not drawn)	–	inconclusive: 15.8 µM [inhibitor, single point]
Cc1cc(C)n(-c2nc3ccccc3s2)n1	–	inconclusive: 12.6 µM [inhibitor, single point]
OCCn1c(-c2ccc3c(c2)OCO3)csc1=Nc1ccccc1	–	inconclusive: 79.4 µM [inhibitor, single point]
CC(=O)c1sc(NC(=O)C(C)C)nc1C	–	inconclusive: 200 µM [inhibitor, partial curve, poor fit]

SMILES	activity, negative = inhibition	Potency
CCn1c(CNC(=O)COC)nc2ccccc21	–	inconclusive: 28.2 µM [inhibitor, partial curve, poor fit]
CC(Sc1nnc(C2CC2)n1C1CC1)C(=O)Nc1cccc(S(=O)(=O)N(C)C)c1 (stereo not drawn)	–	inconclusive: 100 µM [inhibitor, partial curve, poor fit]
CC(C)(C)OC(=O)NCCc1nnc(SCc2ccc(Cl)cc2Cl)o1	inactive: -1.69%	–
CNc1cccccc1=S	–	inconclusive: 56.2 µM [inhibitor, single point]
CCOc1c(O)ccc(/C=C2\SC(=S)NC2=O)c1[N+](=O)[O-]	inactive: -1.76%	–
C[C@H](NS(=O)(=O)c1ccc(Cl)c(Cl)c1)C(=O)OCc1cc(=O)n2cc(Br)ccc2n1	–	inconclusive: 708 µM [inhibitor, partial curve, poor fit]
O=C(O)c1ccc2c(=O)n3c(nc2c1)/C(=C/c1ccc(C(F)(F)F)cc1)CC3	–	inconclusive: 79.4 µM [inhibitor, single point]
Oc1ccc(COCc2ccc(F)cc2)c2cccnc12	inactive: 0.567%	–
CC1=C(C#N)c2nc(N)c(C#N)c(C)c2/C1=C\c1ccc(C)cc1	–	inconclusive: 20 µM [inhibitor, single point]
Cc1cc([N+](=O)[O-])c(C)cc1-c1ccc(/C=N/NC(=O)c2cccnc2)o1	–	inconclusive: 20 µM [inhibitor, partial curve, poor fit]
CCC1(CC)Cc2ccccc2C(=O)N1	–	inconclusive: 100 µM [inhibitor, single point]
O=C(COC(=O)c1ncc(Cl)c(Cl)c1Cl)NC1CCCCCC1	–	inconclusive: 20 µM [inhibitor, single point]
C#CCOc1ccc(OC)cc1C(c1c(C)[nH][nH]c1=O)c1c(C)[nH][nH]c1=O	inactive: 1.08%	–
CCCCn1c(N)c(N(CCOC)C(=O)c2cc3c(s2)CCC(C)C3)c(=O)[nH]c1=O (stereo not drawn)	–	inconclusive: 22.4 µM [inhibitor, single point]
CCCC(=O)OC1CCS(=O)(=O)c2sccc21 (stereo not drawn)	–	inconclusive: 17.8 µM [inhibitor, single point]
CC1Cc2ccccc2N1C(=O)c1cc2sccc2n1Cc1ccc(F)cc1 (stereo not drawn)	–	inconclusive: 112 µM [inhibitor, single point]
Cc1ccc2nc(SCC(=O)NCc3ccco3)c(C#N)cc2c1	–	inconclusive: 100 µM [inhibitor, partial curve, poor fit]
N#Cc1ccc(C(=O)CSc2nnc(-c3ccc(C(F)(F)F)cn3)s2)cc1	–	inconclusive: 200 µM [inhibitor, partial curve, poor fit]
Cc1ccc(OCC(=O)N2CCN(c3nnc(-c4ccc(C)cc4)c4ccccc34)CC2)cc1	inactive: 0.599%	–
O=C(CC1(O)C(=O)N(Cc2ccc3c(c2)OCO3)c2ccccc21)c1ccccc1 (stereo not drawn)	inactive: 0.871%	–
COc1ccccc1NS(=O)(=O)c1cc(NC(=O)c2[nH]c(C)c(C(C)=O)c2C)ccc1N1CCOCC1	–	inconclusive: 100 µM [inhibitor, single point]

3 entries drawn at random from the list so far:
SMILES	activity, negative = inhibition	Potency
C#CCOc1ccc(OC)cc1C(c1c(C)[nH][nH]c1=O)c1c(C)[nH][nH]c1=O	inactive: 1.08%	–
Oc1ccc(COCc2ccc(F)cc2)c2cccnc12	inactive: 0.567%	–
Cc1ccc(S(=O)(=O)NCCCCC(NC(=O)OC(C)(C)C)C(=O)O)cc1 (stereo not drawn) (tested in a mixture with another compound)	–	inconclusive: 17.8 µM [inhibitor, single point]
